No constants are given. Whether binding was seen depends on the method and setting. Binding seen in cells or lysates may run through a third protein. A yes stands for co-enrichment or nearness to the bait. Other partners may have been found.
biological target: GST-BEX2 (human) (UniProt Q9BXY8); assay: affinity purification with mass spectrometry; GST pull-down screen: GST-BEX2 on glutathione magnetic beads incubated with crude nuclear extracts (mouse kidney; HuCCT1 cells) for 12 h at 4 °C with Benzonase; wash 0.15 M NaCl, 0.1% NP-40, 50 mM HEPES pH 7.4; elution with 1.2 M NaCl; SDS-PAGE, silver stain, LC/MS; GST as control; only the target purified

Protein sequences, listed by entry. Tags and fused reporters are not part of them. Residues count along the entry.
UniProt Q9BXY8: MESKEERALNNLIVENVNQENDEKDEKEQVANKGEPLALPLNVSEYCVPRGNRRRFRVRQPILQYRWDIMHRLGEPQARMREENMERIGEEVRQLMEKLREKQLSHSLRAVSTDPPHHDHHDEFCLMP
UniProt P10809, residues 27-573: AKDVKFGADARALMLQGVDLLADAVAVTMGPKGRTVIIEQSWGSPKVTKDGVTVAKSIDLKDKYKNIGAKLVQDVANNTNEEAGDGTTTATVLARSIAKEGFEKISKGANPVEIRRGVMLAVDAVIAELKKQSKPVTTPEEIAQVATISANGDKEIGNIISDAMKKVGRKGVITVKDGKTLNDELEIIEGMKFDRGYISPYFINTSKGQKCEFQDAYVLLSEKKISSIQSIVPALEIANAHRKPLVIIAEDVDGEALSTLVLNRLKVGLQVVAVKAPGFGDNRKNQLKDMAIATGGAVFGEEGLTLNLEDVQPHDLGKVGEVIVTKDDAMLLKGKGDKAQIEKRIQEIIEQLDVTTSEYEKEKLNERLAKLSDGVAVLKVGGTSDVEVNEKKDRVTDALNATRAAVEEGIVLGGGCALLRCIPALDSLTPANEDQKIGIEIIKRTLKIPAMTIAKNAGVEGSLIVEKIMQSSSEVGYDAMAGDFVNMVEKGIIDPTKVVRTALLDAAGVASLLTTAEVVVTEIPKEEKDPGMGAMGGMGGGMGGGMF
UniProt P63038, residues 27-573: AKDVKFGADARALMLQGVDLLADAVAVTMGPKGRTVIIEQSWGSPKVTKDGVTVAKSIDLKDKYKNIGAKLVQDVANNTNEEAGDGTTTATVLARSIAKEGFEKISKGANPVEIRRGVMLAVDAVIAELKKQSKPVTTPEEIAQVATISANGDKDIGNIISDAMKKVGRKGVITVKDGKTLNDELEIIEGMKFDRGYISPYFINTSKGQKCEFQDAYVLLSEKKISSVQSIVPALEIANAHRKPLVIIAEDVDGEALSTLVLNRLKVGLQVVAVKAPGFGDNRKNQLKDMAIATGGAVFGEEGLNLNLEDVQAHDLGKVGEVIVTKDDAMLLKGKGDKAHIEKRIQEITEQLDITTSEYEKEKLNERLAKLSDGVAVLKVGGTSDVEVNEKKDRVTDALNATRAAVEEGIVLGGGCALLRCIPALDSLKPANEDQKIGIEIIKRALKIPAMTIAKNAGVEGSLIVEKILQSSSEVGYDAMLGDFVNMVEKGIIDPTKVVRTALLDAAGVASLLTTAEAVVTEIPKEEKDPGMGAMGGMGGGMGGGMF

binding	Molecule
binds	HSPD1 (from UniProt P10809 27-573)
binds	IVD (protein, UniProt P26440 33-426) HSLLPVDDAINGLSEEQRQLRQTMAKFLQEHLAPKAQEIDRSNEFKNLREFWKQLGNLGVLGITAPVQYGGSGLGYLEHVLVMEEISRASGAVGLSYGAHSNLCINQLVRNGNEAQKEKYLPKLISGEYIGALAMSEPNAGSDVVSMKLKAEKKGNHYILNGNKFWITNGPDADVLIVYAKTDLAAVPASRGITAFIVEKGMPGFSTSKKLDKLGMRGSNTCELIFEDCKIPAANILGHENKGVYVLMSGLDLERLVLAGGPLGLMQAVLDHTIPYLHVREAFGQKIGHFQLMQGKMADMYTRLMACRQYVYNVAKACDEGHCTAKDCAGVILYSAECATQVALDGIQCFGGNGYINDFPMGRFLRDAKLYEIGAGTSEVRRLVIGRAFNADFH

More lines, now with the values behind:

Molecule	binding
HSPD1 (mouse kidney) (from UniProt P63038 27-573)	binds
IVD (mouse kidney) (protein, UniProt Q9JHI5 31-424) HSILPVDDDINGLNEEQKQLRHTISKFLQENLAPKAQEIDQTNDFKNLREFWKQLGSLGVLGITAPVQYGGSGLGYLEHVLVMEEISRASGAVGLSYGAHSNLCVNQIVRNGNEAQKEKYLPKLISGEFIGALAMSEPNAGSDVVSMKLKAEKKGDHYVLNGNKFWITNGPDADILVVYAKTDLTAVPASRGITAFIVEKGMPGFSTSKKLDKLGMRGSNTCELVFEDCKVPAANVLSQESKGVYVLMSGLDLERLVLAGGPLGIMQAVLDHTIPYLHVREAFGQKIGQFQLMQGKMADMYTRLMASRQYVYNVAKACDEGHIIPKDCAGVILYAAECATQVALDGIQCLGGNGYINDFPMGRFLRDAKLYEIGAGTSEVRRLVIGRAFNADFR	binds

Source: publication PMC7725823
